Results reported in article PMC9673352.
Results are given in words; binding and its absence hold for the method and conditions named. Binding seen in cells or lysates may run through a third protein. These calls come from enrichment with a bait or labelling near it, and not all partners need be listed.

B1: Cka2, catalytic subunit of protein kinase CK2 (endogenous) (enzyme, UniProt P19454 1-339)
chain: MPLPPSTLNQKSNRVYSVARVYKNACEERPQEYWDYEQGVTIDWGKISNYEIINKIGRGKYSEVFSGRCIVNNQKCVIKVLKPVKMKKIYRELKILTNLTGGPNVVGLYDIVQDADSKIPALIFEEIKNVDFRTLYPTFKLPDIQYYFTQLLIALDYCHSMGIMHRDVKPQNVMIDPTERKLRLIDWGLAEFYHPGVDYNVRVASRYHKGPELLVNLNQYDYSLDLWSVGCMLAAIVFKKEPFFKGSSNPDQLVKIATVLGTKELLGYLGKYGLHLPSEYDNIMRDFTKKSWTHFITSETKLAVPEVVDLIDNLLRYDHQERLTAKEAMDHKFFKTKFE
B2: Ckb1, regulatory subunit of protein kinase CK2 (endogenous) (protein, UniProt P43639 1-278)
chain: MSQEFVEDYSRTGSSDDEDSGAYDEWIPSFCSRFGHEYFCQVPTEFIEDDFNMTSLSQEVPHYRKALDLILDLEAMSDEEEDEDDVVEEDEVDQEMQSNDGHDEGKRRNKSPVVNKSIIEHAAEQLYGLIHARFILTKPGLQAMAEKFDHKEFGTCPRYYCNGMQLLPCGLSDTVGKHTVRLYCPSCQDLYLPQSSRFLCLEGAFWGTSFPGVFLKHFKELEEYVERKSKESYELKVFGFRINDEAVSGPRMKWLRQYPSTEEDWEEFAKCEFETPAV
B3: Ckb2, regulatory subunit of protein kinase CK2 (endogenous) (protein, UniProt P38930 1-258)
chain: MGSRSENVGTVTREGSRVEQDDVLMDDDSDSSEYVDMWIDLFLGRKGHEYFCDVDPEYITDRFNLMNLQKTVSKFSYVVQYIVDDLDDSILENMTHARLEQLESDSRKLYGLIHARYIITIKGLQKMYAKYKEADFGRCPRVYCNLQQLLPVGLHDIPGIDCVKLYCPSCEDLYIPKSSRHSSIDGAYFGTSFPGMFLQAFPDMVPKHPTKRYVPKIFGFELHKQAQLTRWQELQRLKLVEKLESKDVDLTKSGGFKT
B4: Rap1, general regulatory factor (protein, UniProt P11938 1-827)
chain: MSSPDDFETAPAEYVDALDPSMVVVDSGSAAVTAPSDSAAEVKANQNEENTGATAAETSEKVDQTEVEKKDDDDTTEVGVTTTTPSIADTAATANIASTSGASVTEPTTDDTAADEKKEQVSGPPLSNMKFYLNRDADAHDSLNDIDQLARLIRANGGEVLDSKPRESKENVFIVSPYNHTNLPTVTPTYIKACCQSNSLLNMENYLVPYDNFREVVDSRLQEESHSNGVDNSNSNSDNKDSIRPKTEIISTNTNGATEDSTSEKVMVDAEQQARLQEQAQLLRQHVSSTASITSGGHNDLVQIEQPQKDTSNNNNSNVNDEDNDLLTQDNNPQTADEGNASFQAQRSMISRGALPSHNKASFTDEEDEFILDVVRKNPTRRTTHTLYDEISHYVPNHTGNSIRHRFRVYLSKRLEYVYEVDKFGKLVRDDDGNLIKTKVLPPSIKRKFSADEDYTLAIAVKKQFYRDLFQIDPDTGRSLITDEDTPTAIARRNMTMDPNHVPGSEPNFAAYRTQSRRGPIAREFFKHFAEEHAAHTENAWRDRFRKFLLAYGIDDYISYYEAEKAQNREPEPMKNLTNRPKRPGVPTPGNYNSAAKRARNYSSQRNVQPTANAASANAAAAAAAAASNSYAIPENELLDEDTMNFISSLKNDLSNISNSLPFEYPHEIAEAIRSDFSNEDIYDNIDPDTISFPPKIATTDLFLPLFFHFGSTRQFMDKLHEVISGDYEPSQAEKLVQDLCDETGIRKNFSTSILTCLSGDLMVFPRYFLNMFKDNVNPPPNVPGIWTHDDDESLKSNDQEQIRKLVKKHGTGRMEMRKRFFEKDLL
B5: Reb1, general regulatory factor (protein, UniProt P21538 1-810)
chain: MPSGHNDKNANQESVEEAVLKYVGVGLDHQNHDPQLHTKDLENKHSKKQNIVESSSDVDVNNNDDSNRNEDNNDDSENISALNANESSSNVDHANSNEQHNAVMDWYLRQTAHNQQDDEDDENNNNTDNGNDSNNHFSQSDIVVDDDDDKNKKDAGVGVDDDHQSMAMAAVAAAYTLSKNNNNNNSIANDSNSRKRQHDNGNNHENSQKKRKNNNDDDDRQIGNVDPELTTLGDADDNDTNNDVIDRDQLVHKAIIDADSITQHPDFQQYLNTAADTDDNEKLKHIKDHLMRTHGLNHQNKNHNDDTDDLSNSTKQYSELQKDSMLDSSLNKSRNYMEVLPKVISQDTQPHQQKSPSHDNEAGSVDNSEISQLLQSAATKASSLVSLSSSSATPSTSRSNNSKAFDKAEDAALERFINEYEAIERLTRQQVCERIWSSDRPKDNFWNNIYKVLPYRSSSSIYKHMRRKYHIFEQRGKWTAEEEQELAKLCAEKEGQWAEIGKTLGRMPEDCRDRWRNYVKCGTNRASNRWSVEEEELLKKVISDMLEEAQQQQSQLHPNLLEEEQHLLQDDQNDHRNNDEDDDDTASAAAAAAAAIQEQQQLLQQKQQDDDDAIAAAAAAASSSLGDNKDEDKPHDSLGIQLDDNSQNSMVPAPSATSTHSKSLSNTIRRHNNKLRKSLMGNGKLDFKDIINWTIVSERMGGTRSRIQCRYKWNKLVKREAIAKIQTVKDDDMLWIFEKLRDLGITEDSQVDWDELAALKPGMKLNGLELKLCYERMKKKVKGYKQKSINEISKELVDYFSSNISMKTEN
B6: Abf1, general regulatory factor (protein, UniProt P14164 1-731)
chain: MDKLVVNYYEYKHPIINKDLAIGAHGGKKFPTLGAWYDVINEYEFQTRCPIILKNSHRNKHFTFACHLKNCPFKVLLSYAGNAASSETSSPSANNNTNPPGTPDHIHHHSNNMNNEDNDNNNGSNNKVSNDSKLDFVTDDLEYHLANTHPDDTNDKVESRSNEVNGNNDDDADANNIFKQQGVTIKNDTEDDSINKASIDRGLDDESGPTHGNDSGNHRHNEEDDVHTQMTKNYSDVVNDEDINVAIANAVANVDSQSNNKHDGKDDDATNNNDGQDNNTNNDHNNNSNINNNNVGSHGISSHSPSSIRDTSMNLDVFNSATDDIPGPFVVTKIEPYHSHPLEDNLSLGKFILTKIPKILQNDLKFDQILESSYNNSNHTVSKFKVSHYVEESGLLDILMQRYGLTAEDFEKRLLSQIARRITTYKARFVLKKKKMGEYNDLQPSSSSNNNNNNDGELSGTNLRSNSIDYAKHQEISSAGTSSNTTKNVNNNKNDSNDDNNGNNNNDASNLMESVLDKTSSHRYQPKKMPSVNKWSKPDQITHSDVSMVGLDESNDGGNENVHPTLAEVDAQEARETAQLAIDKINSYKRSIDDKNGDGHNNSSRNVVDENLINDMDSEDAHKSKRQHLSDITLEERNEDDKLPHEVAEQLRLLSSHLKEVENLHQNNDDDVDDVMVDVDVESQYNKNTTHHNNHHSQPHHDEEDVAGLIGKADDEEDLSDENIQPELRGQ
B7: AC40 subunit of RNA polymerase I and III (protein, UniProt P07703 1-335)
chain: MSNIVGIEYNRVTNTTSTDFPGFSKDAENEWNVEKFKKDFEVNISSLDAREANFDLINIDTSIANAFRRIMISEVPSVAAEYVYFFNNTSVIQDEVLAHRIGLVPLKVDPDMLTWVDSNLPDDEKFTDENTIVLSLNVKCTRNPDAPKGSTDPKELYNNAHVYARDLKFEPQGRQSTTFADCPVVPADPDILLAKLRPGQEISLKAHCILGIGGDHAKFSPVSTASYRLLPQINILQPIKGESARRFQKCFPPGVIGIDEGSDEAYVKDARKDTVSREVLRYEEFADKVKLGRVRNHFIFNVESAGAMTPEEIFFKSVRILKNKAEYLKNCPITQ

target: Ty1 integrase with a C-terminal histidine-biotin-histidine (HBH) tag (S. cerevisiae); assay: affinity purification with mass spectrometry; TChAP: cells cross-linked in vivo with 1% formaldehyde, chromatin solubilised and sheared in 6 M urea buffer, IN-HBH purified on nickel then streptavidin beads under denaturing conditions; compared with a strain expressing untagged IN

Binder | binding
B1 | binds
B2 | binds
B3 | binds
B4 | binds
B5 | binds
B6 | binds
B7 | binds
